These are yes or no findings as the source states them, for the method shown. In cells and extracts the contact can be indirect. Some entries that bind do so weakly or less than the wild type.
Key:
[1] = target: hKOPr of the PathHunter U2OS cells (human) (UniProt P41145); experiment: split reporter; DiscoveRx PathHunter eXpress β-arrestin2 enzyme complementation in U2OS cells; cells exposed to LOR17 (0–10 μM), 3 h at 37°C, chemiluminescence
[2] = target: hKOPr of the PathHunter U2OS cells (human) (UniProt P41145); experiment: split reporter; DiscoveRx PathHunter eXpress β-arrestin2 enzyme complementation in U2OS cells; cells exposed to U50,488 (0–10 μM), 3 h at 37°C, chemiluminescence
[3] = target: RLuc-tagged human KOPr (human) (UniProt P41145); experiment: FRET or BRET; HEK-293 cells co-transfected with KOPr-RLuc (250 ng) and increasing mYFP-β-arrestin 2 (0–12 μg); cells exposed to U50,488 (1–10 μM), read 5–60 min; net BRET against vehicle
[4] = target: RLuc-tagged human KOPr (human) (UniProt P41145); experiment: condition: only cells exposed to 1 and 10 μM LOR17 instead of U50,488; FRET or BRET; HEK-293 cells co-transfected with KOPr-RLuc (250 ng) and increasing mYFP-β-arrestin 2 (0–12 μg); cells exposed to LOR17 (1–10 μM), read 5–60 min; net BRET against vehicle

Protein sequences, listed by entry. Tags and fused reporters are not part of them.
UniProt P41145: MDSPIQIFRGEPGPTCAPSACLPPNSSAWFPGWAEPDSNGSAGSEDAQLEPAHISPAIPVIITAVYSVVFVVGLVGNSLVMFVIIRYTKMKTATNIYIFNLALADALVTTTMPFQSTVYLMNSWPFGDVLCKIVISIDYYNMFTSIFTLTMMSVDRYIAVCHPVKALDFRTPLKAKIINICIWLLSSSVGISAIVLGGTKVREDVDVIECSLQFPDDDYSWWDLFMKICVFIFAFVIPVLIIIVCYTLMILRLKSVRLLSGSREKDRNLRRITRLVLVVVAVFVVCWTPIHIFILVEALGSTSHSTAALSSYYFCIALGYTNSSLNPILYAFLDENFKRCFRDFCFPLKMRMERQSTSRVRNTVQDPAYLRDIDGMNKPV
UniProt P32121: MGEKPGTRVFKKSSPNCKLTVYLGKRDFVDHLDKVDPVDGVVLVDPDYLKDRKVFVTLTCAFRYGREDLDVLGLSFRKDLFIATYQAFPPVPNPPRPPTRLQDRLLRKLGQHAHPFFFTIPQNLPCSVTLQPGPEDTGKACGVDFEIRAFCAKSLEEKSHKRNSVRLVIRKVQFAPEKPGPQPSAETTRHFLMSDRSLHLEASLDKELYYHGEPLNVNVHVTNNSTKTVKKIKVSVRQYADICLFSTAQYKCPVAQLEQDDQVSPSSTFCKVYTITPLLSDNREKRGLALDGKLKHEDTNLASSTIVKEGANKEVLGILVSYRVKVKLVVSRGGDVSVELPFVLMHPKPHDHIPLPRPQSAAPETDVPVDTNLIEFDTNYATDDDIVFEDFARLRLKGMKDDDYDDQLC

| Substance | binding [1] | binding [2] | binding [3] | binding [4] |
| --- | --- | --- | --- | --- |
| enzyme acceptor-tagged β-arrestin2 fusion protein (from UniProt P32121 1-409) | binds weakly | binds |  |  |
| mYFP-β-arrestin 2 (from UniProt P32121 1-409) |  |  | binds | no binding |
